Experimental data: PubChem BioAssay AID504834 (National Center for Advancing Translational Sciences (NCATS), 2011)
About 22,000 (6.9%) of roughly 320,000 compounds were called active. This list was built around the results that the source calls inconclusive (neither active nor inactive); the mix of calls is not that of the screen. Calls follow the shape of the dose curve; as a rule, active = well fitted inhibition curve with a large enough effect; inconclusive = small, poorly fitted or top-dose-only effect, or another doubt; inactive = no such curve, though single readings can be large or run the other way. A potency beside an inconclusive call is a rough fit, not a confirmed value.

Experiment: Primary qHTS for delayed death inhibitors of the malarial parasite plastid, 96 hour incubation
Settings: P. falciparum luciferase reporter growth; series mostly up to 28.7 µM; activity change, negative = inhibition: at the top concentration
Procedure, shortened: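 Delayed-death screen, second-generation endpoint: infected erythrocytes, 2% hematocrit, 0.05% parasitemia final; 96 hours at 37 C, 5% CO2; luciferase detection reagent; luminescence decrease equals reduced growth.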
% is scaled to controls: 0 for no effect and ±100 for the full control effect; potency is read from the fitted curve at half-maximal effect.

SMILES | Potency | activity change, negative = inhibition
Cc1ccc2sc(N(CCCN(C)C)C(=O)c3ccc(S(=O)(=O)N(C)C)cc3)nc2c1C | inconclusive: 2.94 µM [inhibitor, full curve, poor fit] | –
COc1cccc(Nc2nc3ccc(OC)cc3s2)c1 | – | inactive: 82.1%
O=C(NCCCNC(=O)c1ccccn1)c1ccccn1 | inconclusive: 11.7 µM [inhibitor, single point] | –
CCCNC(=O)OC[C@H]1O[C@H](CCO/N=C/C[C@@H]2C=C[C@H](OC(C)=O)[C@@H](COC(C)=O)O2)C=C[C@@H]1Oc1ccc(OC)cc1 | inconclusive: 14.7 µM [inhibitor, partial curve, poor fit] | –
O=C(N/N=C/C(Br)=C\c1ccccc1)c1cccs1 | active: 3.7 µM | –
CCOCCCN(C(=O)c1snc(C(N)=O)c1N)C(C(=O)NC1CCCC1)c1ccc(F)cc1 (centres undefined) | inconclusive: 11.7 µM [inhibitor, single point] | –
COc1ccc(NC(=O)CSCC(=O)N(C)CC(=O)Nc2ccc(Cl)c(C(F)(F)F)c2)cc1 | inconclusive: 10.4 µM [inhibitor, single point] | –
COc1cc2c(cc1OC)[C@@H]1O[C@](CCCCN3C(=O)c4ccccc4C3=O)(C2)Oc2cc(C)n(-c3ccccc3)c(=O)c21 | inconclusive: 3.38 µM [inhibitor, single point] | –
OCc1ccc(Cl)cc1Cl | – | inactive: -3.18%
Fc1ccc(-n2c(-c3ccco3)nc3nc4ccccc4nc32)cc1 | inconclusive: 5.22 µM [inhibitor, partial curve] | –
COc1ccc(CCN2CN(S(=O)(=O)c3ccc(OC)cc3)c3nc4ccccc4nc32)cc1 | inconclusive: 13.1 µM [inhibitor, single point] | –
O=C(NC1=NCCS1)c1ccccc1 | inconclusive: 18.5 µM [inhibitor, single point] | –
C=CCNC(=O)CCNS(=O)(=O)c1ccc(Br)cc1 | inconclusive: 18.5 µM [inhibitor, single point] | –
CCCCCN1C2=NCCN2c2ccccc21 | active: 8.28 µM | –
COc1cc(/C=N/NC(=O)NC23CC4CC(CC(C4)C2)C3)ccc1O | inconclusive: 8.28 µM [inhibitor, partial curve] | –
CN(C)CCNC(=O)c1cccc(S(=O)(=O)Nc2ccc(F)cc2)c1 | – | inactive: 16.7%
N#C/C(=C\c1ccncc1)c1ccccn1 | active: 10.4 µM | –
Cc1ccc2c(C)c(C(=O)N(Cc3ccccc3)C3CCS(=O)(=O)C3)oc2c1 (centres undefined) | inconclusive: 10.4 µM [inhibitor, single point] | –
O=C1c2cccc3c([N+](=O)[O-])ccc(c23)C(=O)N1c1ccccn1 | – | inactive: -11.8%
Cc1ccc(CNC(=O)c2ccccc2NC(=O)C2=CSCCO2)cc1 | inconclusive: 18.5 µM [inhibitor, single point] | –
COc1ccc(NC(=O)Nc2ccc([N+](=O)[O-])cc2)cn1 | inconclusive: 4.65 µM [inhibitor, partial curve] | –
O=C(c1cccc(F)c1)N1CCN(C2CCCCC2)CC1 | – | inactive: -8.82%

SMILES | Potency | activity change, negative = inhibition
CCOC(=O)c1sc2nc(Cc3ccc(Cl)cc3)[nH]c(=S)c2c1C | inconclusive: 10.4 µM [inhibitor, single point] | –
O=C(O)CC1(CC(=O)NCc2csc(-c3cccs3)n2)CCCCC1 | – | inactive: 7.98%
CCOC(=O)N1CCC(=NNc2ccc(S(=O)(=O)N3CCOCC3)cc2[N+](=O)[O-])CC1 | inconclusive: 18.5 µM [inhibitor, single point] | –
COCc1nnc(NC(=O)CSc2ccccc2)s1 | inconclusive: 18.5 µM [inhibitor, single point] | –
NC(=O)c1cc([N+](=O)[O-])ccc1NCc1ccc(C(=O)O)cc1 | – | inactive: 39.5%
Cc1ccccc1NC(=O)CSc1nnc2ccc(-c3cccnc3)nn12 | – | inactive: -15.3%
O=c1[nH]c(/C=C/c2ccccn2)nc2ccccc12 | inconclusive: 6.57 µM [inhibitor, partial curve] | –
Cc1cccc(NC(=O)CN(CCc2ccccc2)S(C)(=O)=O)c1 | – | inactive: 110%
CCc1ccc(CN(C)C(=O)CCc2nc3ccccc3n(-c3ccc(OC)cc3)c2=O)cc1 | active: 13.1 µM | –
Cc1ccccc1C(=O)Nn1cnc2ccccc2c1=O | inconclusive: 0.0928 µM [inhibitor, full curve] | –
Cc1cccc(C)c1NC(=O)C(c1ccccc1)N1CC(=O)Nc2ccccc21 (centres undefined) | inconclusive: 18.5 µM [inhibitor, single point] | –
COc1cc(/C=N/NC(=O)c2cccnc2)ccc1OS(=O)(=O)c1cc(C)ccc1C | inconclusive: 18.5 µM [inhibitor, partial curve, poor fit] | –
CCOC(=O)c1c(-c2ccccc2)oc2ccc(O)c(CN(C)C)c12 | inconclusive: 20.8 µM [inhibitor, partial curve, poor fit] | –
CN(C)S(=O)(=O)c1cccc(NC(=O)COC(=O)c2cc(=O)[nH]c(=O)[nH]2)c1 | – | inactive: 6.59%
CCN(c1ccccc1)S(=O)(=O)c1ccc(OC)c(NC(=O)CCc2nc3ccccc3c(=O)[nH]2)c1 | inconclusive: 8.28 µM [inhibitor, partial curve] | –
Cc1c(/C=C2\NC(=O)NC2=O)c2ccccc2n1C | inconclusive: 18.5 µM [inhibitor, single point] | –
OC(CNCc1ccccc1)c1ccccc1 (centres undefined) | inconclusive: 1.31 µM [inhibitor, full curve, poor fit] | –
CCOC(=O)C1=C(CS(=O)(=O)c2ccccc2)NC(=O)NC1c1ccccc1OCC (centres undefined) | inconclusive: 0.0026 µM [inhibitor, full curve, poor fit] | –
Cc1ccc(C(=O)CSc2nnc(-c3cccs3)n2C)o1 | inconclusive: 7.38 µM [inhibitor, partial curve, poor fit] | –
Cc1cc(C)cc(NC(=O)COC(=O)c2cccc(S(=O)(=O)N3CCCCC3)c2)c1 | – | inactive: -10%
COc1ccc(CCNC(=O)c2cc(C3CC3)nc3c2cnn3C(C)C)cc1OC | active: 2.33 µM | –
Cc1ccc(S(=O)(=O)N2CCC(Oc3cccc(C(F)(F)F)c3)CC2)cc1 | active: 2.33 µM | –

12 compounds out of the list, ordered by length of the SMILES, largest number first:
SMILES | Potency | activity change, negative = inhibition
CCN(c1ccccc1)S(=O)(=O)c1ccc(OC)c(NC(=O)CCc2nc3ccccc3c(=O)[nH]2)c1 | inconclusive: 8.28 µM [inhibitor, partial curve] | –
CCc1ccc(CN(C)C(=O)CCc2nc3ccccc3n(-c3ccc(OC)cc3)c2=O)cc1 | active: 13.1 µM | –
COc1cc(/C=N/NC(=O)c2cccnc2)ccc1OS(=O)(=O)c1cc(C)ccc1C | inconclusive: 18.5 µM [inhibitor, partial curve, poor fit] | –
CCOC(=O)C1=C(CS(=O)(=O)c2ccccc2)NC(=O)NC1c1ccccc1OCC (centres undefined) | inconclusive: 0.0026 µM [inhibitor, full curve, poor fit] | –
Cc1cccc(C)c1NC(=O)C(c1ccccc1)N1CC(=O)Nc2ccccc21 (centres undefined) | inconclusive: 18.5 µM [inhibitor, single point] | –
NC(=O)c1cc([N+](=O)[O-])ccc1NCc1ccc(C(=O)O)cc1 | – | inactive: 39.5%
CCOC(=O)c1sc2nc(Cc3ccc(Cl)cc3)[nH]c(=S)c2c1C | inconclusive: 10.4 µM [inhibitor, single point] | –
CCOC(=O)c1c(-c2ccccc2)oc2ccc(O)c(CN(C)C)c12 | inconclusive: 20.8 µM [inhibitor, partial curve, poor fit] | –
Cc1cccc(NC(=O)CN(CCc2ccccc2)S(C)(=O)=O)c1 | – | inactive: 110%
O=c1[nH]c(/C=C/c2ccccn2)nc2ccccc12 | inconclusive: 6.57 µM [inhibitor, partial curve] | –
COCc1nnc(NC(=O)CSc2ccccc2)s1 | inconclusive: 18.5 µM [inhibitor, single point] | –
OC(CNCc1ccccc1)c1ccccc1 (centres undefined) | inconclusive: 1.31 µM [inhibitor, full curve, poor fit] | –
